Laboratory results reported in PubChem BioAssay AID493014 (National Center for Advancing Translational Sciences (NCATS), 2011).
The list shows a part of the results. These are further read-outs of the screen, such as a control signal, another cell line or another target. No call is given for them. The list favours compounds with an active or inconclusive main result. Words in brackets tell the shape of the fitted curve; partial curves, single points and poor fits give uncertain potencies.

Experiment: qHTS Assay to Find Inhibitors of Chronic Active B-Cell Receptor Signaling
Details: ABC-DLBCL IkBa-CBG/CBR reporter, luminescence ratio (green luciferase fused to IkBa over red control in TMD8 lymphoma cells), 4 h
Summary of the method: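 Cell line TMD8 (human ABC DLBCL), stably expressing tet-inducible CBG68-IkBa fusion and CBR; IMDM/0.5% FBS; cpd up to 46 uM; dox induction, 4 h, 37C/5% CO2; dual luminescence; green/red ratio; MG132 control.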

[1] = measured here: CBR red luminescence, cell number
[2] = measured here: IkBa-CBG green luminescence

Compound | AC50 [1] | AC50 [2]
COc1ccc(C2=NN(C(=O)CCCC(=O)O)C(c3cccs3)C2)cc1OC (configuration not stated) | 11.2 µM [rising, partial curve, poor fit] | –
CCOc1ccccc1NC1=C(Cl)C(=O)N(c2ccccc2)C1=O | 23.1 µM [falling, single point] | –
C=CC[C@@H](CC(=O)N(CCO)Cc1ccccc1)C(=O)N[C@@H](COC(=O)[C@H](CC=C)CC(=O)OC(C)(C)C)Cc1c[nH]c2ccccc12 | 20.6 µM [falling, partial curve, poor fit] | –
Cc1ccc(CCN2CC(C(=O)NCCc3ccccc3)CC2=O)cc1 (configuration not stated) | 35.5 µM [rising, single point] | –
COc1cc(C)c(CN2CCN(S(=O)(=O)c3ccc(Cl)s3)CC2)cc1OC | 6.51 µM [rising, single point] | –
COc1ccc(CCNC(=O)NCCc2c[nH]c3ccccc23)cc1OC | 35.5 µM [rising, single point] | –
O=C(NC(=S)N1CCN(c2ccc(F)cc2)CC1)c1cccs1 | 14.1 µM [rising, single point] | 10 µM [falling, partial curve, poor fit]
Cc1cc(C(C)(C)C)oc1C(=O)N(CC(=O)NC1CCCC1)Cc1ccc(F)cc1 | 1.3 µM [rising, full curve, poor fit] | –
CC(C(=O)N1CCCC1)c1ccc([N+](=O)[O-])cc1 (configuration not stated) | 22.4 µM [rising, single point] | –
CC(=O)c1cccc(S(=O)(=O)NCC(c2ccco2)N2CCCCC2)c1 (configuration not stated) | 22.4 µM [falling, partial curve, poor fit] | –
O=C(CCCN1C(=O)/C(=C/c2ccccc2Cl)SC1=S)NNC(=O)c1cccnc1 | 7.94 µM [falling, partial curve] | –
C/C(=N/NS(=O)(=O)c1ccc(Cl)cc1)c1cccc(NC(=O)c2ccc(Cl)cc2Cl)c1 | 44.7 µM [falling, partial curve, poor fit] | –
C=Cc1cccc(NC(=O)COc2ccccc2)c1 | 6.51 µM [falling, single point] | 6.51 µM [rising, partial curve, poor fit]
CCOc1ccccc1/C=N/NC(=O)c1cc(C(C)C)[nH]n1 | 3.16 µM [falling, partial curve, poor fit] | –
Cc1nnc(SCc2nc3ccccc3s2)n1N | 20 µM [rising, partial curve, poor fit] | –
CCOc1ccc(NC(=O)CC2Nc3ccccc3NC2=O)cc1 (configuration not stated) | 35.5 µM [rising, single point] | –
O=C(Nc1ccccc1)c1nnsc1S(=O)c1ccc(Cl)cc1 (configuration not stated) | 7.08 µM [falling, partial curve] | 11.2 µM [rising, partial curve, poor fit]
CCCC1C(=O)Nc2ccccc2N1C(=O)c1ccc(C(C)(C)C)cc1 (configuration not stated) | 14.1 µM [falling, partial curve, poor fit] | –
C/C(=N\NC(=O)c1c[nH]c2ccccc12)c1ccc(C)o1 | 8.2 µM [falling, partial curve, poor fit] | –

Not a retest: three of the compounds above.
Compound | AC50 [1] | AC50 [2]
O=C(CCCN1C(=O)/C(=C/c2ccccc2Cl)SC1=S)NNC(=O)c1cccnc1 | 7.94 µM [falling, partial curve] | –
C/C(=N/NS(=O)(=O)c1ccc(Cl)cc1)c1cccc(NC(=O)c2ccc(Cl)cc2Cl)c1 | 44.7 µM [falling, partial curve, poor fit] | –
C=Cc1cccc(NC(=O)COc2ccccc2)c1 | 6.51 µM [falling, single point] | 6.51 µM [rising, partial curve, poor fit]

Following part.

Compound | AC50 [1] | AC50 [2]
N#Cc1c2n(c3c(=O)n(Cc4ccc(Cl)cc4)cnc13)CCCCC2 | 7.31 µM [rising, partial curve, poor fit] | –
N#CC1=C(N)N=C(SCc2ccccc2)C(C(N)=O)C12CCCCC2 (configuration not stated) | 6.51 µM [falling, single point] | –
COc1ccc(NC(=O)c2cccc3c2C(=O)c2ccc(-c4ccc(F)cc4OCc4ccccc4)cc2S3(=O)=O)cc1 | 3.26 µM [rising, full curve] | –
O=C(NCc1ccccc1)c1ccc(Cl)c(S(=O)(=O)N2CCCC2)c1 | 20.6 µM [rising, single point] | –
CC(=NCCCn1ccnc1)c1c(C)[nH]n(-c2ccc([N+](=O)[O-])cc2)c1=O | 31.6 µM [falling, single point] | –
CCOC(=O)c1sc(NC(=S)NC(=O)CC(C)C)cc1C | 0.794 µM [falling, partial curve] | –
C/C(=N/NS(=O)(=O)c1ccccc1)c1ccc(NC(=O)C2CC2)cc1 | 11.2 µM [falling, single point] | –
Cc1noc(C)c1C(=O)OCC(=O)Nc1cccc(S(N)(=O)=O)c1 | 15.8 µM [falling, single point] | –
CCOC(=O)c1c(C)[nH]c(C(=O)COC(=O)c2ccc(O)cc2)c1C | 11.2 µM [falling, partial curve, poor fit] | –
CCNC(=S)Nc1ccc(-c2nc3ccccc3[nH]2)cc1 | 7.94 µM [falling, partial curve, poor fit] | –
Cc1ccccc1CSCCNC(=O)CSCc1ccc([N+](=O)[O-])cc1 | 22.4 µM [falling, single point] | –
O=C(O)c1cc(N/N=C/c2ccc(-c3ccc(F)cc3)o2)ccc1Cl | 7.08 µM [falling, partial curve, poor fit] | –
Cc1nn(-c2ccccc2)c(N2CCCC2)c1/C=N/NC(=O)c1cc2ccccc2cc1O | 16.4 µM [falling, partial curve, poor fit] | –
O=C1CCCCc2sc(Br)c([N+](=O)[O-])c2N1 | 8.91 µM [falling, partial curve, poor fit] | 11.2 µM [rising, partial curve, poor fit]
CCCCOc1ccc(CNC(=S)N/N=C/c2ccc(OC)c(OC)c2)cc1 | 3.66 µM [falling, single point] | –
CCCCCC(=O)N1CC2(C)CN(C(=O)CCCCC)CC(C)(C1)C2=O | 29.1 µM [rising, single point] | –
COC(=O)CSc1ccc(-c2nc3ccc(C)cc3[nH]2)cn1 | 18.4 µM [falling, partial curve] | –
COc1ccc(C2C(C(=O)c3sc(C)nc3C)=C(O)C(=O)N2CCN(C)C)cc1 (configuration not stated) | 7.31 µM [rising, single point] | –
CCC(=O)Oc1ccc2c(c1)OC1(OC(C)=O)OC(C)CC1=C2C (configuration not stated) | 35.5 µM [rising, single point] | –
